Data: PMC10763615 (RSC Chemical Biology, 2023)
Where a sequence shows no end group, the ends are not given. Strings that start with PEPTIDE1 are HELM notation: dots part the residues, brackets hold end groups and non-standard residues.

Assay: general procedure: Fmoc solid-phase peptide synthesis; Fmoc-PAL AM resin (Novabiochem) pre-loaded with GSGSDYKDDDDK-NH2; DIC / Oxyma / collidine
Conditions: whole synthesis, analytical HPLC/UPLC

| Substance | crude HPLC purity | final HPLC purity |
| --- | --- | --- |
| PEPTIDE1{M.C.I.R.W.P.A.R.Q.P.L.F.W.L.C.G.S.G.S.D.Y.K.D.D.D.D.K.[am]}$PEPTIDE1,PEPTIDE1,2:R3-15:R3$$$V2.0 | 81.1% | 75.7% |
| PEPTIDE1{[ac].M.C.V.W.Q.Y.S.H.H.Y.N.W.H.C.G.S.G.S.D.Y.K.D.D.D.D.K.[am]}$PEPTIDE1,PEPTIDE1,3:R3-15:R3$$$V2.0 | 39.17% | – |
| PEPTIDE1{[ac].M.C.Y.E.D.E.I.W.L.Y.K.V.L.Y.C.G.S.G.S.D.Y.K.D.D.D.D.K.[am]}$PEPTIDE1,PEPTIDE1,3:R3-16:R3$$$V2.0 | 28.19% | – |
| PEPTIDE1{[ac].M.C.E.V.I.W.Y.K.I.Q.W.R.K.C.G.S.G.S.D.Y.K.D.D.D.D.K.[am]}$PEPTIDE1,PEPTIDE1,3:R3-15:R3$$$V2.0 | 38.42% | – |
| PEPTIDE1{[ac].M.C.Y.K.H.I.L.W.Y.K.I.Q.K.L.C.G.S.G.S.E.E.G.S.G.S.D.Y.K.D.D.D.D.K.[am]}$PEPTIDE1,PEPTIDE1,3:R3-16:R3$$$V2.0 | 89.29% | – |
| PEPTIDE1{[ac].M.C.G.V.L.L.Y.K.V.M.R.V.C.G.S.G.S.D.Y.K.D.D.D.D.K.[am]}$PEPTIDE1,PEPTIDE1,3:R3-14:R3$$$V2.0 | 54.21% | – |
| PEPTIDE1{[ac].M.C.I.Y.R.L.S.D.F.W.V.E.C.G.S.G.S.D.Y.K.D.D.D.D.K.[am]}$PEPTIDE1,PEPTIDE1,3:R3-14:R3$$$V2.0 | 51.51% | 93.1% |
| PEPTIDE1{[ac].M.C.H.V.I.L.W.R.S.W.R.Y.C.G.S.G.S.D.Y.K.D.D.D.D.K.[am]}$PEPTIDE1,PEPTIDE1,3:R3-14:R3$$$V2.0 | 64.78% | 69.6% |
| PEPTIDE1{M.C.V.F.D.S.W.L.P.F.V.F.C.G.S.G.S.D.Y.K.D.D.D.D.K.[am]}$PEPTIDE1,PEPTIDE1,2:R3-13:R3$$$V2.0 | 78.64% | – |
| PEPTIDE1{[ac].M.C.R.E.I.R.Y.W.Q.L.W.Q.C.G.S.G.S.D.Y.K.D.D.D.D.K.[am]}$PEPTIDE1,PEPTIDE1,3:R3-14:R3$$$V2.0 | 40.28% | – |
| PEPTIDE1{[ac].M.C.K.Y.S.K.D.L.W.L.Y.R.L.W.C.G.S.G.S.D.Y.K.D.D.D.D.K.[am]}$PEPTIDE1,PEPTIDE1,3:R3-16:R3$$$V2.0 | 34.45% | – |
| PEPTIDE1{[ac].M.C.T.Y.V.Y.Y.Y.K.L.F.H.R.C.G.S.G.S.D.Y.K.D.D.D.D.K.[am]}$PEPTIDE1,PEPTIDE1,3:R3-15:R3$$$V2.0 | 30.34% | – |
| PEPTIDE1{[ac].M.C.H.I.T.I.Y.K.I.L.R.Y.C.G.S.G.S.D.Y.K.D.D.D.D.K.[am]}$PEPTIDE1,PEPTIDE1,3:R3-14:R3$$$V2.0 | 42.81% | – |
| PEPTIDE1{[ac].M.C.S.I.L.W.Y.K.I.T.K.P.L.C.G.S.G.S.D.Y.K.D.D.D.D.K.[am]}$PEPTIDE1,PEPTIDE1,3:R3-15:R3$$$V2.0 | 41.72% | – |
| PEPTIDE1{M.C.V.F.D.S.W.L.P.F.V.Y.C.G.S.G.S.D.Y.K.D.D.D.D.K.[am]}$PEPTIDE1,PEPTIDE1,2:R3-13:R3$$$V2.0 | 86.52% | – |
| PEPTIDE1{[ac].M.C.I.H.R.L.S.D.F.W.V.V.C.G.S.G.S.D.Y.K.D.D.D.D.K.[am]}$PEPTIDE1,PEPTIDE1,3:R3-14:R3$$$V2.0 | 54.65% | – |
| PEPTIDE1{[ac].M.C.R.H.L.F.Y.W.K.L.W.H.Q.R.C.G.S.G.S.E.E.G.S.G.S.D.Y.K.D.D.D.D.K.[am]}$PEPTIDE1,PEPTIDE1,3:R3-16:R3$$$V2.0 | 42.58% | – |
| PEPTIDE1{[ac].M.C.T.Y.E.F.L.F.E.E.L.Y.L.H.C.G.S.G.S.D.Y.K.D.D.D.D.K.[am]}$PEPTIDE1,PEPTIDE1,3:R3-16:R3$$$V2.0 | 58.48% | – |
| PEPTIDE1{[ac].M.C.P.K.Y.F.L.L.W.R.L.M.T.C.G.S.G.S.D.Y.K.D.D.D.D.K.[am]}$PEPTIDE1,PEPTIDE1,3:R3-15:R3$$$V2.0 | 75.8% | – |
| PEPTIDE1{[ac].M.C.P.Y.D.Y.Y.D.W.H.D.W.R.D.C.G.S.G.S.D.Y.K.D.D.D.D.K.[am]}$PEPTIDE1,PEPTIDE1,3:R3-16:R3$$$V2.0 | 53.42% | – |
| PEPTIDE1{[ac].M.C.L.I.S.I.Y.K.V.L.K.H.C.G.S.G.S.D.Y.K.D.D.D.D.K.[am]}$PEPTIDE1,PEPTIDE1,3:R3-14:R3$$$V2.0 | 51.75% | – |
| PEPTIDE1{[ac].M.C.D.K.F.V.K.W.Y.I.V.F.R.H.C.G.S.G.S.E.E.G.S.G.S.D.Y.K.D.D.D.D.K.[am]}$PEPTIDE1,PEPTIDE1,3:R3-16:R3$$$V2.0 | 46.62% | – |
| PEPTIDE1{[ac].M.C.H.I.R.Y.W.Q.L.V.R.K.H.C.G.S.G.S.E.E.G.S.G.S.D.Y.K.D.D.D.D.K.[am]}$PEPTIDE1,PEPTIDE1,3:R3-15:R3$$$V2.0 | 59.54% | – |
| PEPTIDE1{[ac].M.C.I.K.M.F.L.A.H.K.R.F.C.G.S.G.S.D.Y.K.D.D.D.D.K.[am]}$PEPTIDE1,PEPTIDE1,3:R3-14:R3$$$V2.0 | 0% | 92.3% |
| PEPTIDE1{[ac].M.C.S.N.M.W.K.L.A.N.R.W.W.A.C.G.S.G.S.D.Y.K.D.D.D.D.K.[am]}$PEPTIDE1,PEPTIDE1,3:R3-16:R3$$$V2.0 | 68.53% | – |

| Substance | crude HPLC purity | final HPLC purity |
| --- | --- | --- |
| PEPTIDE1{[ac].M.C.S.H.C.W.L.F.K.V.L.L.M.G.S.G.S.D.Y.K.D.D.D.D.K.[am]}$PEPTIDE1,PEPTIDE1,3:R3-6:R3$$$V2.0 | 60.15% | – |
| PEPTIDE1{[ac].M.C.Q.Q.W.N.L.Y.T.R.H.W.H.S.C.G.S.G.S.D.Y.K.D.D.D.D.K.[am]}$PEPTIDE1,PEPTIDE1,3:R3-16:R3$$$V2.0 | 75.4% | 97.0% |
| PEPTIDE1{[ac].M.C.Y.D.I.V.F.D.Y.I.T.V.Y.H.C.G.S.G.S.D.Y.K.D.D.D.D.K.[am]}$PEPTIDE1,PEPTIDE1,3:R3-16:R3$$$V2.0 | 46.75% | – |
| PEPTIDE1{M.C.L.L.W.T.R.H.F.D.R.Y.W.V.C.G.S.G.S.D.Y.K.D.D.D.D.K.[am]}$PEPTIDE1,PEPTIDE1,2:R3-15:R3$$$V2.0 | 42.79% | 61.4% |
| PEPTIDE1{[ac].M.C.T.H.R.H.P.Y.E.T.L.W.H.Q.C.G.S.G.S.D.Y.K.D.D.D.D.K.[am]}$PEPTIDE1,PEPTIDE1,3:R3-16:R3$$$V2.0 | 73.30% | – |
| PEPTIDE1{M.C.T.F.D.T.H.F.P.F.I.T.C.G.S.G.S.D.Y.K.D.D.D.D.K.[am]}$PEPTIDE1,PEPTIDE1,2:R3-13:R3$$$V2.0 | 76.88% | – |
| PEPTIDE1{[ac].M.C.Y.T.R.F.W.T.E.E.W.Q.P.C.G.S.G.S.D.Y.K.D.D.D.D.K.[am]}$PEPTIDE1,PEPTIDE1,3:R3-15:R3$$$V2.0 | 29.58% | – |
| PEPTIDE1{[ac].M.C.I.R.Y.L.F.Y.Y.L.I.S.H.C.G.S.G.S.D.Y.K.D.D.D.D.K.[am]}$PEPTIDE1,PEPTIDE1,3:R3-15:R3$$$V2.0 | 40.68% | – |
| PEPTIDE1{[ac].M.C.H.R.H.L.Y.Y.W.R.L.F.H.S.C.G.S.G.S.E.E.G.S.G.S.D.Y.K.D.D.D.D.K.[am]}$PEPTIDE1,PEPTIDE1,3:R3-16:R3$$$V2.0 | 38.56% | – |
| PEPTIDE1{[ac].M.C.E.H.L.F.Y.Y.L.L.V.K.R.Q.C.G.S.G.S.D.Y.K.D.D.D.D.K.[am]}$PEPTIDE1,PEPTIDE1,3:R3-16:R3$$$V2.0 | 33.38% | – |
| PEPTIDE1{M.C.T.K.F.P.W.P.L.P.I.F.W.A.C.G.S.G.S.D.Y.K.D.D.D.D.K.[am]}$PEPTIDE1,PEPTIDE1,2:R3-15:R3$$$V2.0 | 24.21% | – |
| PEPTIDE1{M.C.I.F.D.I.H.M.P.F.I.P.C.G.S.G.S.D.Y.K.D.D.D.D.K.[am]}$PEPTIDE1,PEPTIDE1,2:R3-13:R3$$$V2.0 | 85.5% | 95.7% |
| PEPTIDE1{[ac].M.C.V.W.K.Y.R.L.D.R.N.W.Y.C.G.S.G.S.D.Y.K.D.D.D.D.K.[am]}$PEPTIDE1,PEPTIDE1,3:R3-15:R3$$$V2.0 | 29.62% | – |
| PEPTIDE1{[ac].M.C.N.L.S.I.I.H.G.Y.V.A.Y.I.C.G.S.G.S.D.Y.K.D.D.D.D.K.[am]}$PEPTIDE1,PEPTIDE1,3:R3-16:R3$$$V2.0 | 100.00% | – |
| PEPTIDE1{[ac].M.C.F.A.L.L.Y.K.I.L.S.R.C.G.S.G.S.D.Y.K.D.D.D.D.K.[am]}$PEPTIDE1,PEPTIDE1,3:R3-14:R3$$$V2.0 | 61.47% | – |
| PEPTIDE1{[ac].M.C.A.K.E.H.L.F.Y.Y.L.L.W.C.G.S.G.S.D.Y.K.D.D.D.D.K.[am]}$PEPTIDE1,PEPTIDE1,3:R3-15:R3$$$V2.0 | 45.38% | – |
| PEPTIDE1{[ac].M.C.F.K.H.P.W.F.F.A.W.L.C.G.S.G.S.D.Y.K.D.D.D.D.K.[am]}$PEPTIDE1,PEPTIDE1,3:R3-14:R3$$$V2.0 | 0% | 79.2% |
| PEPTIDE1{[ac].M.C.K.R.H.L.I.Y.Y.K.I.A.R.C.G.S.G.S.D.Y.K.D.D.D.D.K.[am]}$PEPTIDE1,PEPTIDE1,3:R3-15:R3$$$V2.0 | 68.57% | – |
| PEPTIDE1{[ac].M.C.A.K.A.F.L.L.W.K.G.K.F.C.G.S.G.S.E.E.G.S.G.S.D.Y.K.D.D.D.D.K.[am]}$PEPTIDE1,PEPTIDE1,3:R3-15:R3$$$V2.0 | 12.76% | – |
| PEPTIDE1{[ac].M.C.F.W.P.I.W.Y.K.F.M.A.C.G.S.G.S.D.Y.K.D.D.D.D.K.[am]}$PEPTIDE1,PEPTIDE1,3:R3-14:R3$$$V2.0 | 76.61% | – |
| PEPTIDE1{[ac].M.C.E.P.W.I.T.I.Y.K.V.L.K.K.C.G.S.G.S.D.Y.K.D.D.D.D.K.[am]}$PEPTIDE1,PEPTIDE1,3:R3-16:R3$$$V2.0 | 0% | 79.9% |
| PEPTIDE1{[ac].M.C.I.T.R.K.N.K.W.E.E.W.R.P.C.G.S.G.S.D.Y.K.D.D.D.D.K.[am]}$PEPTIDE1,PEPTIDE1,3:R3-16:R3$$$V2.0 | 61.82% | – |
| PEPTIDE1{[ac].M.C.L.A.Y.Y.L.A.F.H.S.L.C.G.S.G.S.D.Y.K.D.D.D.D.K.[am]}$PEPTIDE1,PEPTIDE1,3:R3-14:R3$$$V2.0 | 67.27% | – |
| PEPTIDE1{[ac].M.C.F.W.R.F.F.P.A.L.L.A.C.G.S.G.S.D.Y.K.D.D.D.D.K.[am]}$PEPTIDE1,PEPTIDE1,3:R3-14:R3$$$V2.0 | 35.76% | – |

Same assay, conditions: whole synthesis, analytical HPLC/UPLC, one disulfide bridge, sequence written open

| Substance | crude HPLC purity |
| --- | --- |
| MCQQWNLYTRHWHIC | 64.14% |
| MCLFDLHLPFIFC | 93.22% |
| MCILHGLIYWAPKQC | 30.18% |
